These are yes or no findings as the source states them, for the method shown. Binding seen in cells or lysates may run through a third protein. Some binding calls cover weakened binding; strength is not graded here. Sequences can lack the tags named with a protein.
Target: T1, FLAG-tagged KDELR3 (K3-DDK) (human) (UniProt O43731)
T1 sequence: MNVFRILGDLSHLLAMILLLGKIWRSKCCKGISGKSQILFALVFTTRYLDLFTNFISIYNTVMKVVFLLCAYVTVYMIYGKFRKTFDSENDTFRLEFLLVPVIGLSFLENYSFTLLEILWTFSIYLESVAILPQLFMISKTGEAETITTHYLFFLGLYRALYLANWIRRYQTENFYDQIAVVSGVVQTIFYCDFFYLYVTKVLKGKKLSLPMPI
Experiment: co-IP

Sequences of proteins named here, by UniProt entry; tags and fusion partners are left off.
UniProt Q9UKV5: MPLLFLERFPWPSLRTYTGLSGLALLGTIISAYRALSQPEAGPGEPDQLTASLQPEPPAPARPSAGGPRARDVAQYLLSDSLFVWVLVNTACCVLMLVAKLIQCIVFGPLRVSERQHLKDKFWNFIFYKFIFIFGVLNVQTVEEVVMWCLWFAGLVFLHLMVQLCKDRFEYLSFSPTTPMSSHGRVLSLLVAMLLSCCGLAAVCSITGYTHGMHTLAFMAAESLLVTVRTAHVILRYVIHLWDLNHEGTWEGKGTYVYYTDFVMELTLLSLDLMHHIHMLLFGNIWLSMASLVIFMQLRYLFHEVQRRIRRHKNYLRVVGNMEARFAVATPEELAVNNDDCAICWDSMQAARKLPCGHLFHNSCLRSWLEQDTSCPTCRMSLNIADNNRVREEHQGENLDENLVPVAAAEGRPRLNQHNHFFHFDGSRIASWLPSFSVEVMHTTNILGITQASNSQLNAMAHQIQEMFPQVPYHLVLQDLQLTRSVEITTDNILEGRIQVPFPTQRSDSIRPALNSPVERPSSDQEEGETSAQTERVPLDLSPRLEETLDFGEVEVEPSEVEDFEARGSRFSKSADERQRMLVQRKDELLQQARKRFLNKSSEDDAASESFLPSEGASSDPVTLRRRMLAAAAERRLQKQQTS

Substance: mCherry tagged gp78 (gp78-mCh) (from UniProt Q9UKV5 1-643) (enzyme)
- binding: binds

Substance: endogenous gp78 (from UniProt Q9UKV5 1-643) (enzyme)
- binding: binds
